Assay results published in the supplement of paper PMC10849652.
The other results are listed elsewhere or left out.

The chains behind the UniProt entries cited, without tags or fusion partners. Where a name states a change or a piece, a line headed by the entry shows the natural chain unless it says otherwise.
UniProt Q9Y287, whole entry, looked up: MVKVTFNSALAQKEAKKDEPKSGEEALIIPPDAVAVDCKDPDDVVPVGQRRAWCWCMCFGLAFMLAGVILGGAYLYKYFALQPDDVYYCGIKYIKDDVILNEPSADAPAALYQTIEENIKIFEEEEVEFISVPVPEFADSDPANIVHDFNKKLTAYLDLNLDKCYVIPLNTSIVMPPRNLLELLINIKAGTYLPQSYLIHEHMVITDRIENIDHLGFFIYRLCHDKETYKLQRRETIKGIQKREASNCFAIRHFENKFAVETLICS
UniProt Q7Z3B3: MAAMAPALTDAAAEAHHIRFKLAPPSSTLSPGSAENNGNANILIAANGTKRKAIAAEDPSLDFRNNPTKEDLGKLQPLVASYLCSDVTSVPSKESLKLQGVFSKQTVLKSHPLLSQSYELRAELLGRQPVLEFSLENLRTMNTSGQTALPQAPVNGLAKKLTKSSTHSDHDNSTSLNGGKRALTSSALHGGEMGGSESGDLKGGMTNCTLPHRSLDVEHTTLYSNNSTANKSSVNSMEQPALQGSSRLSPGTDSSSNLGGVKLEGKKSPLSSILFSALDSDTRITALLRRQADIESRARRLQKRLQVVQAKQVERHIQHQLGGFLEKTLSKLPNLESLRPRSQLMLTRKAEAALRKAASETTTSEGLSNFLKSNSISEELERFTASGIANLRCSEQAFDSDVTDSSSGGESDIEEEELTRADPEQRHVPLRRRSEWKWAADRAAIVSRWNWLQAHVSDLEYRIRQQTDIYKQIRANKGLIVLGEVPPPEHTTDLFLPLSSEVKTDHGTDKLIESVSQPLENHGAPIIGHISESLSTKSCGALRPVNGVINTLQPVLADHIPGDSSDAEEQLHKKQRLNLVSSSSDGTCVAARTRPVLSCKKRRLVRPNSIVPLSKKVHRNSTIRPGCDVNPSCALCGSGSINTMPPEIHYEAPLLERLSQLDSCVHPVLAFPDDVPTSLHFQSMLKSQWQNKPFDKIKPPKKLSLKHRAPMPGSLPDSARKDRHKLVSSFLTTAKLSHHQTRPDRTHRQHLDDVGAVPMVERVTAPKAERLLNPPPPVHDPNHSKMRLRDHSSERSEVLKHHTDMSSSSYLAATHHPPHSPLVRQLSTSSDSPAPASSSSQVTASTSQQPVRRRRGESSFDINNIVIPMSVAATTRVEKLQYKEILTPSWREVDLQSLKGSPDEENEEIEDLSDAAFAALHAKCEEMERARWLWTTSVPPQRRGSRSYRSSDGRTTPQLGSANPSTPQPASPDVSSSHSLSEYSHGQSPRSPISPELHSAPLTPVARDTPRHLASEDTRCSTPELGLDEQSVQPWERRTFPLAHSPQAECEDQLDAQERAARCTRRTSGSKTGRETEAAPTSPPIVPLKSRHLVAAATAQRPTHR
UniProt Q9H910: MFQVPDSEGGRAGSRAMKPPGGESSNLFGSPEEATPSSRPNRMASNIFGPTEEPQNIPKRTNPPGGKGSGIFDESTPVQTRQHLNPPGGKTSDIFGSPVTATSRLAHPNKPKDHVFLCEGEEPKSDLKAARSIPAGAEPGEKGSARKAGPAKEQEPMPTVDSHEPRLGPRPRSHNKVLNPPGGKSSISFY
UniProt Q06033: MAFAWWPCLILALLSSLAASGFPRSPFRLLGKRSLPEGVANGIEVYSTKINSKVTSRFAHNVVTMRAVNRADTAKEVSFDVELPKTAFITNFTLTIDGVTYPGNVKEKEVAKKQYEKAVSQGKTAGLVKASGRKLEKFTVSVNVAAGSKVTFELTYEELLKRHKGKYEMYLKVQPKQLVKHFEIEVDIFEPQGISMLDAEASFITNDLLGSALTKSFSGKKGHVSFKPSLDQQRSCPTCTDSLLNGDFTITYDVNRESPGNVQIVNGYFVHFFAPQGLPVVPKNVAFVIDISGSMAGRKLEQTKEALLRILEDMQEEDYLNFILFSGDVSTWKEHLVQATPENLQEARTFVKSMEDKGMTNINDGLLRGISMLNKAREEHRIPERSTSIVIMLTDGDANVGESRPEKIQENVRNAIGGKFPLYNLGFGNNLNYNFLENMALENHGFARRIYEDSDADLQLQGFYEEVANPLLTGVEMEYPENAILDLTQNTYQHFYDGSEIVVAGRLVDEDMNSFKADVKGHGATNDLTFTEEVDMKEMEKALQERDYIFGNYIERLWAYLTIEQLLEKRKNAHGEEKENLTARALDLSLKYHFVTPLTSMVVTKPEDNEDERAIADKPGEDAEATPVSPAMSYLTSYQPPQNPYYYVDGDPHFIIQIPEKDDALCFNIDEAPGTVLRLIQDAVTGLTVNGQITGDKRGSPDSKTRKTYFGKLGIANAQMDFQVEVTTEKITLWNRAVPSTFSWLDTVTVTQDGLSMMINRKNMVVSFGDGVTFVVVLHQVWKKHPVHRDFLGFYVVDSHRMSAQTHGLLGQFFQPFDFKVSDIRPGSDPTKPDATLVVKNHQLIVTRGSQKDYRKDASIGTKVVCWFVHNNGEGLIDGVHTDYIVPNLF
UniProt Q96DU7: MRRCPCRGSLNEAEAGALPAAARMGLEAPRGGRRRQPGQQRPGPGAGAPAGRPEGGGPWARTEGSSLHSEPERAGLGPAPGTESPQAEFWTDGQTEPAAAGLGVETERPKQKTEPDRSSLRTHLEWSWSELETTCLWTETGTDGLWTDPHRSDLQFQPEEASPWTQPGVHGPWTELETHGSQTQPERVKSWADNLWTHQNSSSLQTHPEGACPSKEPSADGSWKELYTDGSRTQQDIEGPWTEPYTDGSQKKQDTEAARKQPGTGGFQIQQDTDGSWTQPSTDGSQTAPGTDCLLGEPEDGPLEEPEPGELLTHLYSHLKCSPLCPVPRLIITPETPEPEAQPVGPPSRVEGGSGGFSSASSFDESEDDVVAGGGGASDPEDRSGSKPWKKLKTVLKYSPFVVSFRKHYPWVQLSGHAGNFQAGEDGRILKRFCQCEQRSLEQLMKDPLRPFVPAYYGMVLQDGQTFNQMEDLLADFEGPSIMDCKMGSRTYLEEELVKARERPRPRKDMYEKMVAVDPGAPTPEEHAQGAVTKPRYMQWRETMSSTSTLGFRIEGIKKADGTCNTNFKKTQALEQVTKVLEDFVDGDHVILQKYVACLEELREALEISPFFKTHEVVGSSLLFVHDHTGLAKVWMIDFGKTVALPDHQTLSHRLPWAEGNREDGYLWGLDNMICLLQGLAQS
UniProt Q9H9L4: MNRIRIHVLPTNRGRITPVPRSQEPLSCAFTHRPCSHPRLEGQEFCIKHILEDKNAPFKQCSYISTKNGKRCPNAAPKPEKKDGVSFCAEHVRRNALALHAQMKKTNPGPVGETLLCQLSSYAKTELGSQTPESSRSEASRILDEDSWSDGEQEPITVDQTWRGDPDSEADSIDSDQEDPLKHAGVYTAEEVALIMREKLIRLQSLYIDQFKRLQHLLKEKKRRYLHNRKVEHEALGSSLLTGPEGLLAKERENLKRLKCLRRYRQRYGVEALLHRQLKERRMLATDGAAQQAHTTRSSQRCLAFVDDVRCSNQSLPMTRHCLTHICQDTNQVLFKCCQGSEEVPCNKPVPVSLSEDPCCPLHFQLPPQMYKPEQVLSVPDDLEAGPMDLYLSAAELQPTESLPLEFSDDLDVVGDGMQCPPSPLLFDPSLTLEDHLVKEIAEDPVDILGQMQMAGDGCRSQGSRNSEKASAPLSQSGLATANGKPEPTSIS
UniProt Q14571, whole entry, looked up: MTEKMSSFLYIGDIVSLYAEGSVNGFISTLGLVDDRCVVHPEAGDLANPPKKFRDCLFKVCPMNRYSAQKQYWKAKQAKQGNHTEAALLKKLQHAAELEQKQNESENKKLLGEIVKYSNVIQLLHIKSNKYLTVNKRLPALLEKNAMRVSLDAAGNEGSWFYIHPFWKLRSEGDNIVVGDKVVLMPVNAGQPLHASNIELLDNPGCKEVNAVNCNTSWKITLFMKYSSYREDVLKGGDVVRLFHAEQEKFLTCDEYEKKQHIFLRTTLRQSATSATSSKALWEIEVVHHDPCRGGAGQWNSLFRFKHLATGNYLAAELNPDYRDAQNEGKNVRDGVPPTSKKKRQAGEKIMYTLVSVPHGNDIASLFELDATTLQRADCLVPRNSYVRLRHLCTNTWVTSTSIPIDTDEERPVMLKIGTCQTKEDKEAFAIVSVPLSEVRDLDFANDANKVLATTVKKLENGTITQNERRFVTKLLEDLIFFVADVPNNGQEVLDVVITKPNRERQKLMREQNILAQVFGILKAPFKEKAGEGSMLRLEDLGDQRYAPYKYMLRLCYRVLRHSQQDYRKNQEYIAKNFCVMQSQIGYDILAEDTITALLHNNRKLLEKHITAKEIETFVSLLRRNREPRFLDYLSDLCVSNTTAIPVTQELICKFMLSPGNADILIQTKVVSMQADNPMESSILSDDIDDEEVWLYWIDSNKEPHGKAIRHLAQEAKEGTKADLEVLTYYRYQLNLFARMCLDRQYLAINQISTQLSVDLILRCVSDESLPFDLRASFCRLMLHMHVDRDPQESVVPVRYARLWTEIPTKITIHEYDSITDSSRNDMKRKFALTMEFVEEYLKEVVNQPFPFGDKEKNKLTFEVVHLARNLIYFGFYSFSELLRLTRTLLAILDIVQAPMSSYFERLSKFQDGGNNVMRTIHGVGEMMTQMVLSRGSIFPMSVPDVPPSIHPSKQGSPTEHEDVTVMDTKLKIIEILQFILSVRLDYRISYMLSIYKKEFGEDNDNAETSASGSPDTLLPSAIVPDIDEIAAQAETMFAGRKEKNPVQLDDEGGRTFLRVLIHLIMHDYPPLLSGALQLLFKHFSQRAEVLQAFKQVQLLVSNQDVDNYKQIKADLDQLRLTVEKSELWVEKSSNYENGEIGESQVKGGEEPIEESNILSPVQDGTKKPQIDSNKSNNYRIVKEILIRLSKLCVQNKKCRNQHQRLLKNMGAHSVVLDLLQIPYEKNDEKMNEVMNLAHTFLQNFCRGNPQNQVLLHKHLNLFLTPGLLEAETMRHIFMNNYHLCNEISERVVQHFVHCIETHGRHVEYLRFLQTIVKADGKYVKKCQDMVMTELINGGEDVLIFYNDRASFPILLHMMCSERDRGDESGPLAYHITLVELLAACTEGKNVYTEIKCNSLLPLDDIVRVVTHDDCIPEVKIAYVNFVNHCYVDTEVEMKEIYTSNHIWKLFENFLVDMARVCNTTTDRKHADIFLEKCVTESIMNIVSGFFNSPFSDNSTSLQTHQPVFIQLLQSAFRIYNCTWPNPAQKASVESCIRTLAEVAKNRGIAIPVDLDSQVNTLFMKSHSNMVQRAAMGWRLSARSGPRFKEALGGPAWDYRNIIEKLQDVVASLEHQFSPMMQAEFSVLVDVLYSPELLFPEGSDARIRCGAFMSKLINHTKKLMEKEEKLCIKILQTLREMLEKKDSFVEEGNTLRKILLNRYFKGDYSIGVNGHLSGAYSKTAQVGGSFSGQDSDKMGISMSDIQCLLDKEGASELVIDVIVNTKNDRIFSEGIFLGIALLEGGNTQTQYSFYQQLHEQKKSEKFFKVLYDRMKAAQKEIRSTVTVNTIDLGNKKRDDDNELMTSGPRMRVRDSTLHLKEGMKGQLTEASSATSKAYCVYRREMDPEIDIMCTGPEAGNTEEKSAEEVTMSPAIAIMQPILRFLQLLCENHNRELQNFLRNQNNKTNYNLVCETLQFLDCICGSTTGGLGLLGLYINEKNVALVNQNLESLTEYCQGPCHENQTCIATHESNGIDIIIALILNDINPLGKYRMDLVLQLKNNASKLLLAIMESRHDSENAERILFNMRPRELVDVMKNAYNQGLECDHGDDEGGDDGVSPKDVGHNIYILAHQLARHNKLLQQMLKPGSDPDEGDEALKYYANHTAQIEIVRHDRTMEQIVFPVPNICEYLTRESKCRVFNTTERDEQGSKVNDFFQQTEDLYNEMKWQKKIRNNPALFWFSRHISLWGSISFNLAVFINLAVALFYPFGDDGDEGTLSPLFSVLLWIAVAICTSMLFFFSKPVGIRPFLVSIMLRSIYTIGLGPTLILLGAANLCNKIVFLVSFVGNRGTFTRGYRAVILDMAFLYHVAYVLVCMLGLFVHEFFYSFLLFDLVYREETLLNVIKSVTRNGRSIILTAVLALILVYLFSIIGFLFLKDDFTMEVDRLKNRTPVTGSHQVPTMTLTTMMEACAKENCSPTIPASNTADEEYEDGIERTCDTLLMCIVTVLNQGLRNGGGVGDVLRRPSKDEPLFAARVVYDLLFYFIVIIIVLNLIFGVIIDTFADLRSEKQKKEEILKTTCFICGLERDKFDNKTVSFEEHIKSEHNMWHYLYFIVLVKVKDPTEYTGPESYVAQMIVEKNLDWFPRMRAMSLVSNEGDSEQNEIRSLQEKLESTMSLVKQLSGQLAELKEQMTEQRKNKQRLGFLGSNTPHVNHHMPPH
UniProt P01591, whole entry, looked up: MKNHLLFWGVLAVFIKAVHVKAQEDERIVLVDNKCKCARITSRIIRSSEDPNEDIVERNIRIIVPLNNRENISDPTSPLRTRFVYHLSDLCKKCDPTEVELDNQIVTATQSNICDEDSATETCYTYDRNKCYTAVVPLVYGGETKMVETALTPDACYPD

Columns and labels:
Assay in all cases: log2 fold change, soluble protein after heating vs DMSO (PISA); higher = thermal stabilisation; K562 lysate, 10 uM; active = over 0.2 and 3.5 SD of the protein, either way, in both replicates (recomputed)
lapatinib = compound: CS(=O)(=O)CCNCc1ccc(-c2ccc3ncnc(Nc4ccc(OCc5cccc(F)c5)c(Cl)c4)c3c2)o1 [lapatinib]
Method in brief: (§1)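 Thermal stability, expressed as log-two fold change relative to solvent controls, is given from duplicates. Crude K562 extract in PBS pH 7.4 with 1 mM MgCl2, at 1 mg/mL protein, was treated with 10 μM compound for 30 min and heated in aliquots for 3 min across 48°C-58°C. After pooling, adjustment to 0.5% NP-40 at 4°C and centrifugation at 21,000xg for 90 min, supernatant protein was measured by TMTpro 16plex LC-MS/MS with channel sums equalised.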

[1] = compound: C[C@H](C1=CC=C(C=C1)C(=O)NC2=C3C=CNC3=NC=C2)N
Method in brief: as §1

duvelisib = compound: C[C@H](Nc1ncnc2nc[nH]c12)c1cc2cccc(Cl)c2c(=O)n1-c1ccccc1 [duvelisib]
Method in brief: as §1

gandotinib = compound: Cc1cc(Nc2cc(CN3CCOCC3)c3nc(C)c(Cc4ccc(Cl)cc4F)n3n2)n[nH]1 [gandotinib]
Method in brief: as §1

tozasertib = compound: Cc1cc(Nc2cc(N3CCN(C)CC3)nc(Sc3ccc(NC(=O)C4CC4)cc3)n2)n[nH]1 [tozasertib]
Method in brief: as §1

[2] = compound: Cc1cccc(CC(=O)N2CCc3c2ccc(-c2cn(C)c4ncnc(N)c24)c3F)n1
Method in brief: as §1

dasatinib = compound: Cc1nc(Nc2ncc(C(=O)Nc3c(C)cccc3Cl)s2)cc(N2CCN(CCO)CC2)n1 [dasatinib]
Method in brief: as §1

[3] = compound: Cn1cc(-c2ccc3c(c2)CCN3C(=O)Cc2cccc(C(F)(F)F)c2)c2c(N)ncnc21
Method in brief: as §1

[4] = compound: NC(=O)c1cnc(N[C@@H]2CCCC[C@@H]2N)nc1Nc1cccc(-n2nccn2)c1
Method in brief: as §1

[5] = compound: NC1(c2ccc(-c3nc4ccn5c(=O)[nH]nc5c4cc3-c3ccccc3)cc2)CCC1
Method in brief: as §1

crizotinib = compound: C[C@@H](Oc1cc(-c2cnn(C3CCNCC3)c2)cnc1N)c1c(Cl)ccc(F)c1Cl [crizotinib]
Method in brief: as §1

doramapimod = compound: Cc1ccc(-n2nc(C(C)(C)C)cc2NC(=O)Nc2ccc(OCCN3CCOCC3)c3ccccc23)cc1 [doramapimod]
Method in brief: as §1

quisinostat = compound: Cn1cc(CNCC2CCN(c3ncc(C(=O)NO)cn3)CC2)c2ccccc21 [quisinostat]
Method in brief: as §1

[6] = compound: NC(=O)Nc1cc(-c2cccc(F)c2)sc1C(=O)N[C@H]1CCCNC1
Method in brief: as §1

pictilisib = compound: CS(=O)(=O)N1CCN(Cc2cc3nc(-c4cccc5[nH]ncc45)nc(N4CCOCC4)c3s2)CC1 [pictilisib]
Method in brief: as §1

bafetinib = compound: Cc1ccc(NC(=O)c2ccc(CN3CC[C@H](N(C)C)C3)c(C(F)(F)F)c2)cc1Nc1nccc(-c2cncnc2)n1 [bafetinib]
Method in brief: as §1

nilotinib = compound: Cc1cn(-c2cc(NC(=O)c3ccc(C)c(Nc4nccc(-c5cccnc5)n4)c3)cc(C(F)(F)F)c2)cn1 [nilotinib]
Method in brief: as §1

[7] = compound: Cc1nc(Nc2n[nH]c3c2CN(C(=O)N[C@H](CN(C)C)c2ccccc2)C3(C)C)c2sccc2n1
Method in brief: as §1

[8] = compound: Cc1ncc(-c2ccnc(Nc3ccc(S(C)(=O)=O)cc3)n2)n1C(C)C
Method in brief: as §1

tipifarnib = compound: Cn1cncc1[C@@](N)(c1ccc(Cl)cc1)c1ccc2c(c1)c(-c1cccc(Cl)c1)cc(=O)n2C [tipifarnib]
Method in brief: as §1

Measured: log2 fold change

IPP (UniProt Q9Y573)
inactive: lapatinib 0.04 | [1] 0.067 | duvelisib -0.016 | gandotinib -0.172 | tozasertib 0.078 | [2] 0.074 | dasatinib -0.244 | [3] 0.03 | [4] -0.097 | [5] 0.093

IRF9 (UniProt Q00978)
inactive: duvelisib 0 | dasatinib -0.05 | [3] 0.107 | [5] 0.139

JUNB (UniProt P17275)
inactive: crizotinib 0.031 | [1] 0.05 | duvelisib -0.133 | gandotinib 0.084 | doramapimod 0.099 | [2] -0.075 | dasatinib 0.066 | [3] -0.176 | quisinostat -0.11 | [6] -0.047

ITM2B (UniProt Q9Y287)
inactive: pictilisib -0.087 | crizotinib 0.005 | [1] -0.061 | duvelisib 0.033 | gandotinib -0.037 | doramapimod 0.007 | bafetinib -0.032 | [2] 0.138 | nilotinib 0.012 | [7] -0.028 | dasatinib 0.023 | [8] -0.002 | [3] -0.031 | quisinostat 0.015 | tipifarnib -0.012 | [6] 0.018 | [5] -0.024

ISG20L2 (UniProt Q9H9L3)
inactive: lapatinib -0.019 | [1] 0.12 | duvelisib -0.013 | gandotinib 0.028 | tozasertib 0.125 | [2] -0.011 | nilotinib -0.028 | [7] 0 | dasatinib 0.069 | [8] 0.329 | [3] 0.017 | tipifarnib 0.057 | [4] 0.084 | [5] -0.072

KDM2B (UniProt Q8NHM5)
inactive: crizotinib 0.018 | tozasertib 0.048 | doramapimod -0.263 | quisinostat -0.177 | [6] 0.05 | [5] -0.082

KBTBD6 (UniProt Q86V97)
inactive: crizotinib -0.046 | [1] -0.049 | gandotinib -0.053 | doramapimod 0.127 | [2] 0.001 | nilotinib -0.255 | [7] -0.015 | [8] 0.112 | quisinostat 0.156 | tipifarnib 0.036 | [6] -0.098

KANSL1 (UniProt Q7Z3B3)
inactive: lapatinib 0.068 | [1] -0.043 | duvelisib -0.277 | gandotinib -0.107 | tozasertib 0.085 | [2] 0.088 | nilotinib -0.012 | [7] 0.241 | dasatinib 0.081 | [8] -0.032 | [3] 0.147 | tipifarnib -0.023 | [4] -0.038 | [5] 0.307

JARID2 (UniProt Q92833)
inactive: nilotinib 0.086 | [7] -0.216 | [8] -0.025 | tipifarnib 0.041

ITFG2 (UniProt H0YGR0)
inactive: lapatinib -0.012 | duvelisib -0.054 | dasatinib 0.001 | [3] 0.101 | [4] 0.062

JPT2 isoform 2 (UniProt Q9H910)
inactive: pictilisib 0.079 | [1] 0.064 | duvelisib -0.328 | gandotinib 0.065 | bafetinib -0.035 | [2] -0.012 | dasatinib -0.103 | [3] 0.12

JMY (UniProt Q8N9B5)
inactive: pictilisib -0.315 | crizotinib -0.164 | [1] -0.098 | duvelisib 0.099 | gandotinib -0.014 | doramapimod 0.171 | bafetinib -0.249 | [2] 0.095 | dasatinib -0.073 | [3] -0.51 | quisinostat -0.183 | [6] -0.205 | [5] -0.092

KDM2A (UniProt Q9Y2K7)
inactive: pictilisib 0.011 | [1] 0.029 | duvelisib 0.01 | gandotinib -0.001 | tozasertib -0.008 | bafetinib -0.152 | [2] -0.003 | nilotinib -0.046 | [7] 0.039 | dasatinib -0.057 | [8] 0.034 | [3] 0.084 | tipifarnib 0.028 | [5] 0.09

ITIH3 (UniProt Q06033)
inactive: pictilisib -0.053 | tozasertib 0.055 | bafetinib -0.068 | [5] -0.053

KCNH2 (UniProt Q12809)
inactive: crizotinib -0.19 | [1] 0.119 | gandotinib -0.148 | doramapimod 0.224 | [2] 0.013 | quisinostat -0.117

KAZN isoform 3 (UniProt Q674X7)
inactive: pictilisib 0.01 | crizotinib 0.014 | [1] -0.008 | gandotinib 0.111 | doramapimod -0.04 | bafetinib -0.116 | [2] 0.012 | quisinostat 0.016 | [6] 0.133 | [5] -0.003

IQCB1 (UniProt Q15051)
inactive: pictilisib -0.05 | [1] 0.071 | duvelisib 0.117 | gandotinib -0.198 | tozasertib -0.003 | bafetinib 0.013 | [2] -0.01 | nilotinib -0.069 | [7] -0.197 | dasatinib 0.098 | [8] 0.163 | [3] 0.155 | tipifarnib 0.084 | [5] -0.1

ISG20 (UniProt Q96AZ6)
inactive: pictilisib -0.187 | duvelisib -0.028 | bafetinib 0.094 | dasatinib -0.108 | [3] 0.061 | [5] -0.076

KALRN (UniProt O60229)
inactive: crizotinib -0.002 | [1] -0.127 | gandotinib 0.031 | doramapimod 0.013 | [2] 0.058 | quisinostat -0.044 | [6] 0.034

Retrieved one by one from the list above, 2 records:
IQCB1 (UniProt Q15051)
inactive: pictilisib -0.05 | [1] 0.071 | duvelisib 0.117 | gandotinib -0.198 | tozasertib -0.003 | bafetinib 0.013 | [2] -0.01 | nilotinib -0.069 | [7] -0.197 | dasatinib 0.098 | [8] 0.163 | [3] 0.155 | tipifarnib 0.084 | [5] -0.1

ISG20 (UniProt Q96AZ6)
inactive: pictilisib -0.187 | duvelisib -0.028 | bafetinib 0.094 | dasatinib -0.108 | [3] 0.061 | [5] -0.076

The list goes on:

ITIH4 (UniProt Q14624)
inactive: pictilisib 0.019 | [1] 0.001 | duvelisib -0.01 | gandotinib 0.138 | tozasertib 0.104 | bafetinib -0.035 | [2] 0.055 | dasatinib -0.003 | [3] -0.03 | [5] -0.278

JOSD1 (UniProt Q15040)
inactive: [5] 0.001

ISL2 (UniProt Q96A47)
inactive: pictilisib 0 | crizotinib 0.001 | duvelisib 0.006 | gandotinib -0.104 | doramapimod -0.074 | bafetinib -0.055 | [2] -0.096 | dasatinib 0.015 | [3] 0.053 | quisinostat 0.055 | [6] -0.092 | [5] 0.014
active: [1] 0.609

KANK2 isoform 2 (UniProt Q63ZY3)
inactive: lapatinib -0.142 | [1] 0.284 | duvelisib 0.084 | gandotinib -0.111 | tozasertib -0.095 | [2] 0.055 | dasatinib -0.046 | [3] -0.098 | [4] -0.035

ITPKC (UniProt Q96DU7)
inactive: pictilisib 0.041 | crizotinib -0.132 | [1] -0.052 | duvelisib 0.035 | gandotinib -0.206 | tozasertib 0.032 | doramapimod -0.056 | bafetinib -0.058 | [2] 0.09 | nilotinib 0.004 | [7] -0.024 | dasatinib -0.047 | [8] -0.072 | [3] -0.004 | quisinostat -0.126 | tipifarnib 0.074 | [6] 0.041 | [5] -0.021

KANSL2 (UniProt Q9H9L4)
inactive: crizotinib -0.011 | doramapimod -0.016 | quisinostat -0.024 | [6] 0.006 | [5] 0.023

ITGB1BP2 (UniProt Q9UKP3)
active: gandotinib 0.86
inactive: [1] -0.18 | duvelisib -0.005 | tozasertib -0.259 | [2] 0.548 | dasatinib -0.104 | [3] 0.249

ITPR2 (UniProt Q14571)
inactive: lapatinib -0.571 | duvelisib -0.004 | nilotinib -0.008 | [7] -0.081 | dasatinib 0.019 | [8] 0.048 | [3] -0.078 | tipifarnib 0.003 | [4] 0.277 | [5] -0.12

KCTD21 (UniProt Q4G0X4)
inactive: pictilisib 0.105 | crizotinib 0.013 | tozasertib 0.077 | doramapimod -0.013 | bafetinib -0.14 | nilotinib 0.052 | [7] -0.091 | [8] -0.012 | quisinostat -0.023 | tipifarnib 0.206 | [6] -0.009 | [5] 0.038

KDM3A (UniProt Q9Y4C1)
inactive: pictilisib -0.048 | crizotinib -0.036 | [1] 0.125 | duvelisib -0.065 | gandotinib -0.02 | tozasertib -0.008 | doramapimod 0.059 | bafetinib -0.044 | [2] -0.077 | nilotinib -0.021 | [7] 0.038 | dasatinib -0.067 | [8] -0.001 | [3] 0.004 | quisinostat -0.082 | tipifarnib 0.023 | [6] -0.011 | [5] 0.035

JCHAIN (UniProt P01591)
inactive: crizotinib 1.2 | doramapimod -0.143 | quisinostat 0.389 | [6] -0.281 | [5] 1.17

JADE2 (UniProt Q9NQC1)
inactive: [1] -0.114 | duvelisib -0.109 | gandotinib -0.139 | tozasertib 0.26 | [2] 0.088 | dasatinib 0 | [3] 0.03

ITGB3BP isoform 5 (UniProt Q13352)
inactive: crizotinib 0.124 | [1] 0.138 | gandotinib 0.054 | doramapimod 0.13 | [2] -0.133 | quisinostat -0.015 | [6] 0.192

ITPRIP (UniProt Q8IWB1)
inactive: duvelisib 0.179 | dasatinib -0.017 | [3] 0.005 | [5] 0.06

JRK isoform 2 (UniProt O75564)
inactive: nilotinib -0.005 | [7] -0.033 | [8] -0.058 | tipifarnib 0.099
